Results published in patent US20200377561A1, “ANTIMICROBIAL PEPTIDES AND METHODS OF TREATING GRAM-NEGATIVE PATHOGEN INFECTIONS: POLAR AND NON-POLAR FACE ANALOGS” (THE REGENTS OF THE UNIVERSITY OF COLORADO, a body corporate, priority 2017, published 2020).
Peptide text beside a SMILES is read from it.

The compounds below were run on Human erythrocytes (assay: Haemolysis assay using human blood). Conditions: therapeutic index, HC50 over A. baumannii NCTC13420 MIC.
Format: cell-based
Method: To determine the extent of haemolytic activity (the ability to lyse red blood cells) in test peptides, a haemolysis assay was conducted using human blood (BioIVT, West Sussex, UK). Human erythrocytes were exposed to a single fixed concentration or a range of concentrations as to determine the % haemolysis (fixed concentration) or the concentration at which 50% haemolysis occurred (HC50), respectively. Prior to the assay, whole human blood was repeatedly washed in phosphate buffered saline (PBS) under cooled conditions to remove the buffy coat, plasma and cell debris. Washed erythrocytes were diluted as to achieve 1×10^8 cells/mL in PBS. Prepared human erythrocyte samples were combined with peptide at a single fixed concentration of 128 μg/mL, or a range of concentrations (two-fold dilution series) from 1000-31.25 μg/mL. Positive and negative controls containing 2% (v/v) Triton X-100 and PBS alone, respectively, were also prepared. Samples were incubated at 37° C. for 1 hour and then centrifuged to collect intact erythrocytes. Haemoglobin release was determined by recording the optical density of the supernatant at 540 nm. Optical density values were transformed to a percentage of the positive control. Results were recorded as a percentage haemolysis at 128 μg/mL, or by plotting the percentage haemolysis versus concentration and extrapolating the HC50 using linear regression analysis (Table 2 above)
The therapeutic index is a widely-accepted parameter to represent the specificity of antimicrobial peptides for prokaryotic versus eukaryotic cells. It is calculated by the ratio of hemolytic activity and antimicrobial activity (MIC) (Table 2 above); thus, larger values of therapeutic index indicate greater specificity for prokaryotic cells. With the peptides used in this study the inventors used the HC50/MIC ratio value to calculate the therapeutic index.
In the case of CC(=O)N[C@H](C)C(=O)N[C@H](CC(C)C)C(=O)N[C@H](CCCCN)C(=O)N[C@H](CCCCN)C(=O)N[C@H](CC(C)C)C(=O)N[C@H](CC(C)C)C(=O)N[C@H](CCCCN)C(=O)N[C@H](CCCCN)C(=O)N[C@H](CC(C)C)C(=O)N[C@H](CO)C(=O)N[C@H](CO)C(=O)N[C@H](C)C(=O)N[C@H](CCCN)C(=O)N[C@H](CO)C(=O)N[C@H](CO)C(=O)N[C@H](CCCN)C(=O)N[C@H](CC(C)C)C(=O)N[C@H](CO)C(=O)N[C@@H](C(=O)N[C@H](CC(C)C)C(=O)N[C@H](CC(C)C)C(=O)N[C@H](CCCCN)C(=O)N[C@H](CCCCN)C(=O)N[C@H](CC(C)C)C(=O)N[C@H](CCCCN)C(=O)N[C@H](CCCCN)C(N)=O)[C@H](C)O [compound 19] (HELM PEPTIDE1{[ac].[dA].[dL].[dK].[dK].[dL].[dL].[dK].[dK].[dL].[dS].[dS].[dA].[NCCC[C@@H](N[*:1])C(=O)[*:2]].[dS].[dS].[NCCC[C@@H](N[*:1])C(=O)[*:2]].[dL].[dS].[dT].[dL].[dL].[dK].[dK].[dL].[dK].[dK].[am]}$$$$V2.0), the “HC50/A.b MIC selectivity ratio” value is reported as greater than 500.
CC(=O)N[C@H](C)C(=O)N[C@H](CC(C)C)C(=O)N[C@H](CCCCN)C(=O)N[C@H](CCCCN)C(=O)N[C@H](CC(C)C)C(=O)N[C@H](CC(C)C)C(=O)N[C@H](CCCCN)C(=O)N[C@H](CCCCN)C(=O)N[C@H](CC(C)C)C(=O)N[C@H](CO)C(=O)N[C@H](CO)C(=O)N[C@H](C)C(=O)N[C@H](CCN)C(=O)N[C@H](CO)C(=O)N[C@H](CO)C(=O)N[C@H](CCN)C(=O)N[C@H](CC(C)C)C(=O)N[C@H](CO)C(=O)N[C@@H](C(=O)N[C@H](CC(C)C)C(=O)N[C@H](CC(C)C)C(=O)N[C@H](CCCCN)C(=O)N[C@H](CCCCN)C(=O)N[C@H](CC(C)C)C(=O)N[C@H](CCCCN)C(=O)N[C@H](CCCCN)C(N)=O)[C@H](C)O [compound 20] (HELM PEPTIDE1{[ac].[dA].[dL].[dK].[dK].[dL].[dL].[dK].[dK].[dL].[dS].[dS].[dA].[NCC[C@@H](N[*:1])C(=O)[*:2]].[dS].[dS].[NCC[C@@H](N[*:1])C(=O)[*:2]].[dL].[dS].[dT].[dL].[dL].[dK].[dK].[dL].[dK].[dK].[am]}$$$$V2.0) was tested, and the “HC50/A.b MIC selectivity ratio” value was greater than 500.
In the case of CC(=O)N[C@H](C)C(=O)N[C@H](CC(C)C)C(=O)N[C@H](CCCCN)C(=O)N[C@H](CCCCN)C(=O)N[C@H](CC(C)C)C(=O)N[C@H](CC(C)C)C(=O)N[C@H](CCCCN)C(=O)N[C@H](CCCCN)C(=O)N[C@H](CC(C)C)C(=O)N[C@H](CO)C(=O)N[C@H](CO)C(=O)N[C@H](C)C(=O)N[C@H](CN)C(=O)N[C@H](CO)C(=O)N[C@H](CO)C(=O)N[C@H](CN)C(=O)N[C@H](CC(C)C)C(=O)N[C@H](CO)C(=O)N[C@@H](C(=O)N[C@H](CC(C)C)C(=O)N[C@H](CC(C)C)C(=O)N[C@H](CCCCN)C(=O)N[C@H](CCCCN)C(=O)N[C@H](CC(C)C)C(=O)N[C@H](CCCCN)C(=O)N[C@H](CCCCN)C(N)=O)[C@H](C)O [compound 21] (HELM PEPTIDE1{[ac].[dA].[dL].[dK].[dK].[dL].[dL].[dK].[dK].[dL].[dS].[dS].[dA].[NC[C@@H](N[*:1])C(=O)[*:2]].[dS].[dS].[NC[C@@H](N[*:1])C(=O)[*:2]].[dL].[dS].[dT].[dL].[dL].[dK].[dK].[dL].[dK].[dK].[am]}$$$$V2.0), the “HC50/A.b MIC selectivity ratio” value is reported as greater than 500.
For CC(=O)N[C@H](C)C(=O)N[C@H](CC(C)C)C(=O)N[C@H](CCCCN)C(=O)N[C@H](CO)C(=O)N[C@H](CC(C)C)C(=O)N[C@H](CC(C)C)C(=O)N[C@H](CCCCN)C(=O)N[C@H](CCCCN)C(=O)N[C@H](CC(C)C)C(=O)N[C@H](CO)C(=O)N[C@H](CCCCN)C(=O)N[C@H](C)C(=O)N[C@H](CCCCN)C(=O)N[C@H](CCCCN)C(=O)N[C@H](CCCCN)C(=O)N[C@H](CCCCN)C(=O)N[C@H](CC(C)C)C(=O)N[C@H](CCCCN)C(=O)N[C@H](CCCCN)C(=O)N[C@H](CC(C)C)C(=O)N[C@H](CC(C)C)C(=O)N[C@H](CCCCN)C(=O)N[C@H](C)C(=O)N[C@H](CC(C)C)C(=O)N[C@H](CO)C(=O)N[C@H](CO)C(N)=O [compound 23] (HELM PEPTIDE1{[ac].[dA].[dL].[dK].[dS].[dL].[dL].[dK].[dK].[dL].[dS].[dK].[dA].[dK].[dK].[dK].[dK].[dL].[dK].[dK].[dL].[dL].[dK].[dA].[dL].[dS].[dS].[am]}$$$$V2.0), the “HC50/A.b MIC selectivity ratio” value was 87.5.
In the case of CC(=O)N[C@H](CCCCN)C(=O)N[C@H](CC(C)C)C(=O)N[C@H](CCCCN)C(=O)N[C@H](CCCCN)C(=O)N[C@H](CC(C)C)C(=O)N[C@H](CC(C)C)C(=O)N[C@H](CCCCN)C(=O)N[C@H](CCCCN)C(=O)N[C@H](CC(C)C)C(=O)N[C@H](CO)C(=O)N[C@H](CO)C(=O)N[C@H](C)C(=O)N[C@H](CCCCN)C(=O)N[C@H](CO)C(=O)N[C@H](CO)C(=O)N[C@H](CCCCN)C(=O)N[C@H](CC(C)C)C(=O)N[C@H](CO)C(=O)N[C@H](CO)C(=O)N[C@H](CC(C)C)C(=O)N[C@H](CC(C)C)C(=O)N[C@H](CCCCN)C(=O)N[C@H](CCCCN)C(=O)N[C@H](CC(C)C)C(=O)N[C@H](CCCCN)C(=O)N[C@H](CCCCN)C(N)=O [compound 24] (HELM PEPTIDE1{[ac].[dK].[dL].[dK].[dK].[dL].[dL].[dK].[dK].[dL].[dS].[dS].[dA].[dK].[dS].[dS].[dK].[dL].[dS].[dS].[dL].[dL].[dK].[dK].[dL].[dK].[dK].[am]}$$$$V2.0), the “HC50/A.b MIC selectivity ratio” value is reported as greater than 1000.
CC(=O)N[C@H](C)C(=O)N[C@H](CC(C)C)C(=O)N[C@H](CCCCN)C(=O)N[C@H](CCCCN)C(=O)N[C@H](CC(C)C)C(=O)N[C@H](CC(C)C)C(=O)N[C@H](CCCCN)C(=O)N[C@H](CCCCN)C(=O)N[C@H](CC(C)C)C(=O)N[C@H](CO)C(=O)N[C@H](CO)C(=O)N[C@H](C)C(=O)N[C@H](CCCCN)C(=O)N[C@H](CO)C(=O)N[C@H](CO)C(=O)N[C@H](CCCCN)C(=O)N[C@H](CC(C)C)C(=O)N[C@H](CO)C(=O)N[C@H](CO)C(=O)N[C@H](CC(C)C)C(=O)N[C@H](CC(C)C)C(=O)N[C@H](CCCCN)C(=O)N[C@H](CCCCN)C(=O)N[C@H](CC(C)C)C(=O)N[C@H](CCCCN)C(=O)N[C@H](CCCCN)C(N)=O [compound 25] (HELM PEPTIDE1{[ac].[dA].[dL].[dK].[dK].[dL].[dL].[dK].[dK].[dL].[dS].[dS].[dA].[dK].[dS].[dS].[dK].[dL].[dS].[dS].[dL].[dL].[dK].[dK].[dL].[dK].[dK].[am]}$$$$V2.0) was tested, and the “HC50/A.b MIC selectivity ratio” value was greater than 1000.
In the case of CC(=O)N[C@H](CCCCN)C(=O)N[C@H](CC(C)C)C(=O)N[C@H](CCCCN)C(=O)N[C@H](CO)C(=O)N[C@H](CC(C)C)C(=O)N[C@H](CC(C)C)C(=O)N[C@H](CCCCN)C(=O)N[C@H](CO)C(=O)N[C@H](CC(C)C)C(=O)N[C@H](CO)C(=O)N[C@H](CCCCN)C(=O)N[C@H](C)C(=O)N[C@H](CCCCN)C(=O)N[C@H](CCCCN)C(=O)N[C@H](CCCCN)C(=O)N[C@H](CCCCN)C(=O)N[C@H](CC(C)C)C(=O)N[C@H](CCCCN)C(=O)N[C@H](CO)C(=O)N[C@H](CC(C)C)C(=O)N[C@H](CC(C)C)C(=O)N[C@H](CCCCN)C(=O)N[C@H](C)C(=O)N[C@H](CC(C)C)C(=O)N[C@H](CO)C(=O)N[C@H](CCCCN)C(N)=O [compound 26] (HELM PEPTIDE1{[ac].[dK].[dL].[dK].[dS].[dL].[dL].[dK].[dS].[dL].[dS].[dK].[dA].[dK].[dK].[dK].[dK].[dL].[dK].[dS].[dL].[dL].[dK].[dA].[dL].[dS].[dK].[am]}$$$$V2.0), the “HC50/A.b MIC selectivity ratio” value is reported as greater than 1000.
